PubChem BioAssay AID1671195, Yale University, 2021

Test: 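Genes whose knockdown alters LDL uptake in liver cancer cells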 (primary screen)
System: human Huh7 hepatoma cells
Knock-down reagent: siRNA pool against human genes, 18 nM
Timing: about 2 to 2.5 days of knockdown, then 8 h LDL uptake
Conditions: DiI-labelled LDL at 30 µg/ml for 8 h, in lipoprotein-deficient serum medium
Measurement: 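Fluorescent LDL signal imaged in cells, scaled to the plate median, robust z-score for each replicate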
Scale: robust z-score: higher = more LDL uptake after knockdown
Active means: 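a gene counts as active if at least two replicate z-scores exceed ±2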
In all, the deposit lists about 22,000 reagents; shown is a part drawn at random. Over the whole deposit, about 1,510 (6.9%) were called active. 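Active includes knockdowns raising or lowering LDL uptake; positive z-scores mean more uptake, negative mean less.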 A number with no mark means an inactive call. Reagent sequences are not shown.

With SBDS (SBDS ribosome maturation factor), what does the deposit list?
robust z-score, replicate 1: -1.29; robust z-score, replicate 2: -0.884; robust z-score, replicate 3: -0.503

For SLC25A37, how do the results read?
robust z-score, replicate 1: 2.58; robust z-score, replicate 2: 0.425; robust z-score, replicate 3: -1.98

With FOXK1 (forkhead box K1), how do the results read?
robust z-score, replicate 1: 0.0174; robust z-score, replicate 2: -0.608; robust z-score, replicate 3: -0.42

With HLA-DRA (major histocompatibility complex, class II, DR alpha), what does the deposit list?
robust z-score, replicate 1: -1.3; robust z-score, replicate 2: 0.176; robust z-score, replicate 3: -1.24

For REG1A (regenerating family member 1 alpha), what was measured?
robust z-score, replicate 1: -2.17; robust z-score, replicate 2: -1.14; robust z-score, replicate 3: -1.38

With ZNF750 (zinc finger protein 750), what was measured?
robust z-score, replicate 1: 2.34; robust z-score, replicate 2: 1.63; robust z-score, replicate 3: 1.67

What is on record for GTF2H2 (general transcription factor IIH subunit 2)?
robust z-score, replicate 1: -0.0909; robust z-score, replicate 2: -0.111; robust z-score, replicate 3: -0.127

With MIB1 (MIB E3 ubiquitin protein ligase 1), what was measured?
robust z-score, replicate 1: 0.397; robust z-score, replicate 2: -1.3; robust z-score, replicate 3: -1.33

What is on record for ZNF16 (zinc finger protein 16)?
robust z-score, replicate 1: 1.21; robust z-score, replicate 2: 1.75; robust z-score, replicate 3: 0.713

With ACO1 (aconitase 1), how do the results read?
robust z-score, replicate 1: -0.231; robust z-score, replicate 2: -0.176; robust z-score, replicate 3: 0.162

What is on record for LOC440974 (retired record)?
robust z-score, replicate 1: -0.253; robust z-score, replicate 2: -0.371; robust z-score, replicate 3: -0.49

For B4GALT3 (beta-1,4-galactosyltransferase 3), how do the results read?
robust z-score, replicate 1: 0.748; robust z-score, replicate 2: 0.569; robust z-score, replicate 3: 0.18
